Test results taken from patent US10201625B2 (IMPERIAL COLLEGE, priority 2011, dated 2019).

Experiment: general procedure: Fmoc solid-phase peptide synthesis; Fmoc-Thr(tBu)-SASRIN resin; HBTU/HOBt/DIPEA
Conditions: for step yield: late stage modification step

Row | Substance | step yield [%] | oxidative folding yield (oxidative folding step, one disulfide bridge, sequence written open) [%]
1 | 4b FETE-TOGA: FETE-TOGA: 3-[1-(2-fluoroethyl)-1,2,3-triazol-4-yl]propanoyl-[Tyr3]octreotate | 56 | –
2 | FET-βAG-[W-c(CTFTYC)K] | 38 | –
3 | propynoyl-β-Ala-Gly-D-Phe-Cys-Tyr-D-Trp-Lys-Thr-Cys-Thr-OH | – | 48
